# Results are given in words; binding and its absence hold for the method and conditions named. Binding seen in cells or lysates may run through a third protein. These calls come from enrichment with a bait or labelling near it, and not all partners need be listed. Tags and fused reporters may be left off the sequences shown.
# The chains behind the UniProt entries cited, without tags or fusion partners.
# UniProt P40562: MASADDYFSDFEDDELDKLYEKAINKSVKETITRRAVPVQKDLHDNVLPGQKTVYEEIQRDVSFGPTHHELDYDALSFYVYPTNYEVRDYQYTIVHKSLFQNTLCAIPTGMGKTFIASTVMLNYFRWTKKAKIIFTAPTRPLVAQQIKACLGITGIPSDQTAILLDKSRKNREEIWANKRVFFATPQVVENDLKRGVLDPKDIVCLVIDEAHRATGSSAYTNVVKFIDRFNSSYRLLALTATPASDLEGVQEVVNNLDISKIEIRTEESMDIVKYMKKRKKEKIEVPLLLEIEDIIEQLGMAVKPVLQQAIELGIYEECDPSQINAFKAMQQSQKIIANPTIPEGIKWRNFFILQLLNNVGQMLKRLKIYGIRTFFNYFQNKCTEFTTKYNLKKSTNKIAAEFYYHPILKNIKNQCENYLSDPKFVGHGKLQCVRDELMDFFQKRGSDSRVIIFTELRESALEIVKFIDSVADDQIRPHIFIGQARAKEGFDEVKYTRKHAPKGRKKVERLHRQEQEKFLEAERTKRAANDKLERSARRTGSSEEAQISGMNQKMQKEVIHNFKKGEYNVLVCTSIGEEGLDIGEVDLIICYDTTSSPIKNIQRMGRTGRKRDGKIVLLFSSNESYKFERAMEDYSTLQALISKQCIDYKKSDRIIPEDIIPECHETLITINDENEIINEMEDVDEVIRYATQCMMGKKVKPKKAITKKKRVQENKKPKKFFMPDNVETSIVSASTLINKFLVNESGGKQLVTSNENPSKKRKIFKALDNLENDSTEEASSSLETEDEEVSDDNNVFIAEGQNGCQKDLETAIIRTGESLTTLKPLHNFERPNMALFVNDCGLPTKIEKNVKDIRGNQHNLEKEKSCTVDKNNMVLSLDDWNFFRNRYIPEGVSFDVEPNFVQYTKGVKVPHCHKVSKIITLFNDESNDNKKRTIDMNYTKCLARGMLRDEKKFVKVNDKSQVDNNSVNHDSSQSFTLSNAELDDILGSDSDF
# T1: FLAG-tagged Mgm101 (budding yeast) (UniProt P32787)
# T1 sequence: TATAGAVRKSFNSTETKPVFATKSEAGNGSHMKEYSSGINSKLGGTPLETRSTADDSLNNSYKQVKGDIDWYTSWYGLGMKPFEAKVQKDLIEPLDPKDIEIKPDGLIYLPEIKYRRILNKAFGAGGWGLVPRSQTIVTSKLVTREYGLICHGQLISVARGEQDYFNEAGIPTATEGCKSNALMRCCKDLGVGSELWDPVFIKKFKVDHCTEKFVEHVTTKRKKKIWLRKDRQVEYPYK
# B1: Msh2 (protein, UniProt P25847 1-964)
# chain: MSSTRPELKFSDVSEERNFYKKYTGLPKKPLKTIRLVDKGDYYTVIGSDAIFVADSVYHTQSVLKNCQLDPVTAKNFHEPTKYVTVSLQVLATLLKLCLLDLGYKVEIYDKGWKLIKSASPGNIEQVNELMNMNIDSSIIIASLKVQWNSQDGNCIIGVAFIDTTAYKVGMLDIVDNEVYSNLESFLIQLGVKECLVQDLTSNSNSNAEMQKVINVIDRCGCVVTLLKNSEFSEKDVELDLTKLLGDDLALSLPQKYSKLSMGACNALIGYLQLLSEQDQVGKYELVEHKLKEFMKLDASAIKALNLFPQGPQNPFGSNNLAVSGFTSAGNSGKVTSLFQLLNHCKTNAGVRLLNEWLKQPLTNIDEINKRHDLVDYLIDQIELRQMLTSEYLPMIPDIRRLTKKLNKRGNLEDVLKIYQFSKRIPEIVQVFTSFLEDDSPTEPVNELVRSVWLAPLSHHVEPLSKFEEMVETTVDLDAYEENNEFMIKVEFNEELGKIRSKLDTLRDEIHSIHLDSAEDLGFDPDKKLKLENHHLHGWCMRLTRNDAKELRKHKKYIELSTVKAGIFFSTKQLKSIANETNILQKEYDKQQSALVREIINITLTYTPVFEKLSLVLAHLDVIASFAHTSSYAPIPYIRPKLHPMDSERRTHLISSRHPVLEMQDDISFISNDVTLESGKGDFLIITGPNMGGKSTYIRQVGVISLMAQIGCFVPCEEAEIAIVDAILCRVGAGDSQLKGVSTFMVEILETASILKNASKNSLIIVDELGRGTSTYDGFGLAWAIAEHIASKIGCFALFATHFHELTELSEKLPNVKNMHVVAHIEKNLKEQKHDDEDITLLYKVEPGISDQSFGIHVAEVVQFPEKIVKMAKRKANELDDLKTNNEDLKKAKLSLQEVNEGNIRLKALLKEWIRKVKEEGLHDPSKITEEASQHKIQELLRAIANEPEKENDNYLKYIKALLL
# B2: Msh6 (protein, UniProt Q03834 1-1242)
# chain: MAPATPKTSKTAHFENGSTSSQKKMKQSSLLSFFSKQVPSGTPSKKVQKPTPATLENTATDKITKNPQGGKTGKLFVDVDEDNDLTIAEETVSTVRSDIMHSQEPQSDTMLNSNTTEPKSTTTDEDLSSSQSRRNHKRRVNYAESDDDDSDTTFTAKRKKGKVVDSESDEDEYLPDKNDGDEDDDIADDKEDIKGELAEDSGDDDDLISLAETTSKKKFSYNTSHSSSPFTRNISRDNSKKKSRPNQAPSRSYNPSHSQPSATSKSSKFNKQNEERYQWLVDERDAQRRPKSDPEYDPRTLYIPSSAWNKFTPFEKQYWEIKSKMWDCIVFFKKGKFFELYEKDALLANALFDLKIAGGGRANMQLAGIPEMSFEYWAAQFIQMGYKVAKVDQRESMLAKEMREGSKGIVKRELQCILTSGTLTDGDMLHSDLATFCLAIREEPGNFYNETQLDSSTIVQKLNTKIFGAAFIDTATGELQMLEFEDDSECTKLDTLMSQVRPMEVVMERNNLSTLANKIVKFNSAPNAIFNEVKAGEEFYDCDKTYAEIISSEYFSTEEDWPEVLKSYYDTGKKVGFSAFGGLLYYLKWLKLDKNLISMKNIKEYDFVKSQHSMVLDGITLQNLEIFSNSFDGSDKGTLFKLFNRAITPMGKRMMKKWLMHPLLRKNDIESRLDSVDSLLQDITLREQLEITFSKLPDLERMLARIHSRTIKVKDFEKVITAFETIIELQDSLKNNDLKGDVSKYISSFPEGLVEAVKSWTNAFERQKAINENIIVPQRGFDIEFDKSMDRIQELEDELMEILMTYRKQFKCSNIQYKDSGKEIYTIEIPISATKNVPSNWVQMAANKTYKRYYSDEVRALARSMAEAKEIHKTLEEDLKNRLCQKFDAHYNTIWMPTIQAISNIDCLLAITRTSEYLGAPSCRPTIVDEVDSKTNTQLNGFLKFKSLRHPCFNLGATTAKDFIPNDIELGKEQPRLGLLTGANAAGKSTILRMACIAVIMAQMGCYVPCESAVLTPIDRIMTRLGANDNIMQGKSTFFVELAETKKILDMATNRSLLVVDELGRGGSSSDGFAIAESVLHHVATHIQSLGFFATHYGTLASSFKHHPQVRPLKMSILVDEATRNVTFLYKMLEGQSEGSFGMHVASMCGISKEIIDNAQIAADNLEHTSRLVKERDLAANNLNGEVVSVPGGLQSDFVRIAYGDGLKNTKLGSGEGVLNYDWNIKRNVLKSLFSIIDDLQS
# B3: Fkh1 (protein, UniProt P40466 1-484)
# chain: MSVTSREQKFSGKYSSYTAQDRQGLVNAVTCVLSSSSDPVAVSSDYSNSLSIAREVNAYAKIAGCDWTYYVQKLEVTIGRNTDSLNLNAVPGTVVKKNIDIDLGPAKIVSRKHAAIRFNLESGSWELQIFGRNGAKVNFRRIPTGPDSPPTVLQSGCIIDIGGVQMIFILPEQETIISDYCLNHLMPKLLSTYGTNGNNNPLLRNIIEGSTYLREQRLQEEARLQQLDHLHTPLSSSSDVNPIGDPHGDTIMMEEDEEDENYTRGGIRPNTYTSSSNNAVTNGNVPHIENPSDLSLDENRYIKPPQSYASMITQAILSTPEGSISLADIYKFISDNYAFYRFSQMAWQNSVRHNLSLNKAFEKVPKRAGQQGKGMNWKISDEVRRDFLNKWNAGKLSKIRRGASVTRQLQLHMSKFGEIPAPESSSIDPRGIKAQKVKKSLQATSSILGESAPQLQRTQLTGQISTTTSMDVTTNANVNNSSLS
# B4: Lsm7 (protein, UniProt P53905 1-115)
# chain: MHQQHSKSENKPQQQRKKFEGPKREAILDLAKYKDSKIRVKLMGGKLVIGVLKGYDQLMNLVLDDTVEYMSNPDDENNTELISKNARKLGLTVIRGTILVSLSSAEGSDVLYMQK
# Target: T1, FLAG-tagged Mgm101 (budding yeast)
# Assay: affinity purification with mass spectrometry; Mgm101-FLAG captured on Anti-FLAG M2 Affinity gel; eluate separated by liquid chromatography, peaks with intensity above 400 trypsin digested and identified by MALDI-TOF MS and MS/MS
molecule,measurement,value
Mph1 (from UniProt P40562 1-993),binding,binds
B1,binding,binds
B2,binding,binds
B3,binding,binds
B4,binding,binds
